We go through 1 substance from publication doi:10.1101/2025.05.07.652675.

The chains behind the UniProt entries cited, without tags or fusion partners.
UniProt P75862: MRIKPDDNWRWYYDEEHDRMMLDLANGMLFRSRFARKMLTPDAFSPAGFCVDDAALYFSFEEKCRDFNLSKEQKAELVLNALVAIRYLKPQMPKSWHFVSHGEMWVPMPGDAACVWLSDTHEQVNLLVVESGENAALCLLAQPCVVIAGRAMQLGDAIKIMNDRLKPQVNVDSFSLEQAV

Results are given in words; binding and its absence hold for the method and conditions named. A result given as binding can be weak or reduced; the word gives no strength.

The target of assay [1] is FtsZ^F285S, T25 fusion (bacterial two-hybrid) (E. coli) (UniProt P0A9A6). Kind of assay: two-hybrid.
Assay [2] concerns the target FtsZ-T25 fusion protein (bacterial two-hybrid) (E. coli) (UniProt P0A9A6). Put plainly: two-hybrid.

In the case of “ZapC (bacterial two-hybrid fusion) (from UniProt P75862 1-180)”, the binding entry in assay [1] and in assay [2] was “binds” throughout.
